# The list shows a part of the results. The main result of the screen is listed elsewhere. These columns were measured beside it and carry no call. The list favours compounds with an active or inconclusive main result. Potencies come from curve fits of mixed quality, noted in brackets.
# Assay: qHTS Assay to Find Inhibitors of Chronic Active B-Cell Receptor Signaling
# Conditions: ABC-DLBCL IkBa-CBG/CBR reporter, luminescence ratio (green luciferase fused to IkBa over red control in TMD8 lymphoma cells), 4 h
# Summary of the method: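 Compounds up to 46 uM were incubated four hours with TMD8 cells whose green CBG68 luciferase is fused to IkappaBalpha; red CBR luminescence normalised the signal, and concentration-effect curves were fitted to fusion, red and ratio data.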
# [1] = measured here: CBR red luminescence, cell number
# [2] = measured here: IkBa-CBG green luminescence
compound,measurement,setting,value
COc1ccc(C)cc1NC(=O)CNc1ccccc1CN(C)C1CCCCC1,AC50,[1],"14.1 µM [falling, partial curve, poor fit]"
Cc1cccc(NC(=O)NC2CCCc3ccccc32)c1 (configuration not stated),AC50,[1],"11.2 µM [falling, partial curve]"
O=C(NCc1csc2ccccc12)Nc1cc(Cl)cc(Cl)c1,AC50,[1],"3.98 µM [rising, single point]"
COC(=O)C1=CN(C(C)c2ccccc2)C=C(C(=O)OC)C1c1cc(OC)c(OC)c(OC)c1 (configuration not stated),AC50,[1],"14.1 µM [falling, partial curve]"
CN(CCOc1ccc(Cl)cc1)C(=O)c1cc(-c2ccco2)nc2ccccc12,AC50,[1],"14.6 µM [falling, single point]"
CCCCNc1c(-c2cccc(SC3CCCCC3)c2)nc2ccc(Cl)cn12,AC50,[1],"23.1 µM [falling, single point]"
Cc1cc(C)n2nc3ccccc3c2n1,AC50,[1],"0.562 µM [falling, partial curve, poor fit]"
CC(=O)c1cc(-c2ccccc2)[nH]c1N1CCOCC1,AC50,[1],"32.6 µM [falling, single point]"
C/C(=N/NC(=O)c1ccc(Cl)s1)c1ccc(NC(=O)COc2ccc(Cl)cc2)cc1,AC50,[1],"16.4 µM [falling, single point]"
c1coc(-c2nnc(-c3ccco3)nn2)c1,AC50,[1],"11.2 µM [falling, partial curve]"
CC1=NNC(=O)/C1=C\c1cn(-c2ccccc2)nc1-c1cccs1,AC50,[1],"20.6 µM [falling, partial curve]"
same,AC50,[2],"23.1 µM [rising, single point]"
O=C(NCCOC(=O)c1ccc(Cl)c(S(=O)(=O)N2CCCCC2)c1)c1ccncc1,AC50,[1],"0.891 µM [rising, full curve, poor fit]"
Cc1nc2ccc(NC(=O)c3cc(Cl)ccn3)cc2s1,AC50,[1],"14.1 µM [falling, single point]"
Cc1ccc(C)c(S(=O)(=O)Nc2ccccc2C(=O)Nc2ccccc2N2CCOCC2)c1,AC50,[1],"0.146 µM [falling, full curve, poor fit]"
Cc1ccc(SCC(=O)Nc2cc(S(=O)(=O)N3CCCCC3)ccc2C)cc1,AC50,[1],"6.51 µM [rising, single point]"
Cc1ccc2c(=O)cc(C(F)F)oc2c1,AC50,[1],"0.103 µM [rising, full curve, poor fit]"
CCOC(=O)Nc1ccc2c(CN3C(=O)NC4(CCCC4)C3=O)cc(=O)oc2c1,AC50,[1],"13 µM [falling, partial curve, poor fit]"
CC(C)CNC(=O)c1ccccc1NC(=O)CN(c1ccc2c(c1)OCCO2)S(C)(=O)=O,AC50,[1],"3.66 µM [rising, partial curve]"
CC(=O)C1=NN(c2ccccc2)C2(S1)S/C(=C\c1ccccc1)C(=O)N2c1ccccc1 (configuration not stated),AC50,[1],"7.31 µM [falling, partial curve, poor fit]"
O=C(N/N=C/c1c[nH]c2ccccc12)c1cc(Cl)ccc1O,AC50,[1],"1.26 µM [falling, full curve]"
COc1cc2[nH]c(C(=O)N(C)Cc3ccccc3)cc2c(OC)c1OC,AC50,[1],"17.8 µM [rising, partial curve, poor fit]"
COc1cc(/C=N/NC(=O)c2ccc3c(c2)OCCO3)cc(Br)c1O,AC50,[1],"8.91 µM [falling, partial curve]"
Cc1ccc(CNC(=O)C2CC(c3cccc([N+](=O)[O-])c3)=NO2)o1 (configuration not stated),AC50,[1],"2.51 µM [falling, full curve, poor fit]"
CN(C)c1ccc(NC(=O)C2(c3cccs3)CCOCC2)cc1,AC50,[1],"17.8 µM [rising, single point]"
COc1ccc(C2C(C#N)=C(N)Oc3c2c(-c2ccccc2)nn3-c2ccccc2)c(OC)c1OC (configuration not stated),AC50,[1],"13 µM [falling, partial curve, poor fit]"
O=C(CN1CCOCC1)Nc1ccccc1,AC50,[1],"20.6 µM [rising, single point]"
COc1cccc(-c2c(-c3cc(OC)cc(OC)c3)n(C)c3ccc(Br)cc23)c1,AC50,[1],"16.4 µM [rising, single point]"
CC1=C(C(=O)OCC(C)C)C(c2ccccc2Cl)NC(=O)N1C (configuration not stated),AC50,[1],"4.11 µM [rising, single point]"
CC(=O)c1cccc(OCc2cc(C(=O)N3CCSCC3)no2)c1,AC50,[1],"35.5 µM [rising, single point]"
Cc1ccc(/C=C2\SC(=S)N(CCC(=O)NNC(=O)c3cccc(O)c3)C2=O)cc1,AC50,[1],"10 µM [falling, partial curve]"
COc1cc2c(cc1OC)C(c1ccc(-c3ccccc3Cl)o1)=NCC2,AC50,[1],"1.03 µM [rising, single point]"
OCC1(Cc2ccccc2)CCN(Cc2cnc(-c3cccc4ccccc34)nc2)CC1,AC50,[1],"2.51 µM [falling, partial curve, poor fit]"
Cc1ccccc1-c1cc(C(=O)n2cccn2)c2cc(Cl)ccc2n1,AC50,[1],"11.2 µM [falling, partial curve, poor fit]"
Cc1ccc(N(CC(=O)N2CCOCC2)S(C)(=O)=O)cc1C,AC50,[1],"3.26 µM [rising, single point]"
CN1CCN(C(=O)CCCOc2cc(=O)n(C)c3ccccc23)CC1,AC50,[2],"32.6 µM [falling, partial curve, poor fit]"
Cc1sc2c(c1C)C(O)=C(C(=O)Nc1ccccc1)S(=O)(=O)N2C,AC50,[1],"1.12 µM [falling, partial curve, poor fit]"
COc1ccc(CN=CC2=C(O)CNC2=O)cc1,AC50,[1],"2.91 µM [falling, single point]"
COc1ccc(Nc2nc(C)c(-c3ccccc3)s2)cc1,AC50,[1],"29.1 µM [falling, single point]"
CCc1nc(NC(C)(C)C)c2cnn(-c3ccccc3)c2n1,AC50,[1],"5.01 µM [rising, full curve, poor fit]"
CCOC(=O)C1=C(C)NC(C)=C(C(=O)OCC)C1C(=O)OCC(=O)N1CCc2ccccc21,AC50,[1],"3.16 µM [rising, partial curve]"
COc1ccccc1C1=NN(C(=O)c2ccccc2)C(c2ccc(Br)cc2)C1 (configuration not stated),AC50,[1],"14.1 µM [rising, partial curve, poor fit]"

# An excerpt of these results, with bars between the fields.
compound | measurement | setting | value
COc1ccc(C)cc1NC(=O)CNc1ccccc1CN(C)C1CCCCC1 | AC50 | [1] | 14.1 µM [falling, partial curve, poor fit]
Cc1cccc(NC(=O)NC2CCCc3ccccc32)c1 (configuration not stated) | AC50 | [1] | 11.2 µM [falling, partial curve]
O=C(NCc1csc2ccccc12)Nc1cc(Cl)cc(Cl)c1 | AC50 | [1] | 3.98 µM [rising, single point]
